Data: patent publication US8343913B1, “Hsp90, buffering and drug resistance” (priority 2004, dated 2013)
At least one compound was matched to its structure with a doubt left.

Legend:
S. cerevisiae [1] = test: Serial cell dilution (spotting) assay with or without fluconazole; type: cell-based, Saccharomyces cerevisiae; settings: GdA 5 μM or RAD 1 μM; 64 μg/ml fluconazole; rich medium, 30° C.; concordant by MIC testing
Description: FIG. 4. Hsp90 and calcineurin are required for FL resistance acquired through diverse mutations. […] Top two panels, deletion mutants. Bottom panel, control strains obtained by rapid (R1-3) and gradual (G1-3) selection. (A) Hsp90 was inhibited by GdA (5 μM) or RAD (1 μM), as indicated. (B) Calcineurin was inhibited by cyclosporin A (CsA, 20 μM).
Strains were grown to saturation in SD medium and cell concentrations were standardized based on optical density. Five-fold dilutions, starting from ˜4×10^6 cells/ml, were spotted on media, as indicated in the figure legends, using a spotter (Frogger, V&P Scientific, Inc). The plates were photographed after 2-3 days in the dark at the indicated temperature. For all spotting assays in which Hsp90 or calcineurin inhibitors were employed, the corresponding plates without these inhibitors was supplemented with the maximum final concentration of DMSO used (0.14%), as a solvent control.

C. albicans = test: Fluconazole MIC test (broth microdilution); type: cell-based, Candida albicans; settings: GdA 5 μM or CsA 20 μM; rich and defined medium; early isolates affected far more than later ones
Description: (§1) Cell densities of overnight cultures were determined and dilutions were prepared such that ˜10^3 cells were inoculated into each well. Radicicol (RAD, A.G. Scientific, Inc.) and geldanamycin (GdA, Alexis Biochemicals) were employed to inhibit Hsp90 at the concentrations indicated in the figure legends (1-5 μM). Cyclosporin A (CsA, CalBiochem) was employed to inhibit calcineurin at a concentration of 20 μM. Dimethyl sulfoxide (DMSO, Sigma-Aldrich Co.) was the solvent for RAD, GdA, and CsA. Thus, the maximum final DMSO concentration (0.14%) was included in FL MIC tests performed in the absence of RAD, GdA, or CsA to control for any solvent effects.
After 48 hours, plates were sealed with a clear film (Axygen Scientific), re-suspended by agitation, and absorbance was determined at 595 nm with the Multiskan Ascent photometer (Thermo Labsystems, Thermo Electron Corporation). Absorbance values were corrected for background from the corresponding medium. […] The MIC of each strain was tested at least two independent times in duplicate. Most strains were tested in rich medium (half-strength YPD) and SD medium. C. albicans clinical isolates were also tested in the synthetic defined medium that is the standard for clinical testing, RPMI (9).

S. cerevisiae [2] = test: Fluconazole MIC test (broth microdilution) with Hsp90 or calcineurin inhibitors; type: cell-based, Saccharomyces cerevisiae; settings: GdA 5 μM or RAD 5 μM, SD medium, 30° C.
Description: as §1
After 48 hours, plates were sealed with a clear film (Axygen Scientific), re-suspended by agitation, and absorbance was determined at 595 nm with the Multiskan Ascent photometer (Thermo Labsystems, Thermo Electron Corporation). Absorbance values were corrected for background from the corresponding medium. MICs were determined as the concentration of FL that inhibits fungal growth by 50% relative to the FL-free growth control. The MIC of each strain was tested at least two independent times in duplicate. Most strains were tested in rich medium (half-strength YPD) and SD medium. C. albicans clinical isolates were also tested in the synthetic defined medium that is the standard for clinical testing, RPMI (9).

Compound: COC1=C2C[C@@H](C)C[C@H](OC)[C@H](O)[C@@H](C)/C=C(\C)[C@H](OC(N)=O)[C@@H](OC)/C=C\C=C(/C)C(=O)NC(=CC1=O)C2=O [GdA, Geldanamycin]
- effect on fluconazole resistance of eleven deletion mutants (S. cerevisiae [1]): reduced the fluconazole resistance in all of them
- effect on fluconazole resistance of serial clinical isolates (CaCi) (C. albicans): reduced resistance
- effect of inhibitor alone on growth (S. cerevisiae [2]; 0 μg/ml fluconazole): did not impair growth on their own
- effect on fluconazole resistance of G1-3 strains (gradual selection) (S. cerevisiae [2]): neither GdA nor RAD altered resistance
- effect on fluconazole resistance of R1-3 strains (rapid selection) (S. cerevisiae [2]): abolished fluconazole resistance
- effect on fluconazole sensitivity of progenitor strains (S. cerevisiae [2]): had no effect
